Data on two molecules can be found in article PMC1904229.

Results are given in words; binding and its absence hold for the method and conditions named. Binding seen in cells or lysates may run through a third protein. A result given as binding can be weak or reduced; the word gives no strength.

One experiment concerns the target Recombinant GST-Zfra. Nature of the experiment: pull-down; glutathione-Sepharose 4B beads coated with GST or GST-Zfra; SK-N-SH cells untreated, treated with TNF (50 ng/ml; 10 or 40 min) or exposed to UV light (120 mJoule/cm^2, then 1 hr in culture); Western blotting; only the target purified.
Experiment [1] has as its target Endogenous Zfra (SK-N-SH cells) (human (endogenous in SK-N-SH)). As to the kind of experiment: co-IP; immunoprecipitation with specific antibodies against Zfra; endogenous proteins of SK-N-SH cells, with or without UV light (120 mJoule/cm^2).

B1: Endogenous Tyr33-phosphorylated WOX1 (SK-N-SH cells) (protein, UniProt Q9NZC7 1-414)
chain: MAALRYAGLDDTDSEDELPPGWEERTTKDGWVYYANHTEEKTQWEHPKTGKRKRVAGDLPYGWEQETDENGQVFFVDHINKRTTYLDPRLAFTVDDNPTKPTTRQRYDGSTTAMEILQGRDFTGKVVVVTGANSGIGFETAKSFALHGAHVILACRNMARASEAVSRILEEWHKAKVEAMTLDLALLRSVQHFAEAFKAKNVPLHVLVCNAATFALPWSLTKDGLETTFQVNHLGHFYLVQLLQDVLCRSAPARVIVVSSESHRFTDINDSLGKLDFSRLSPTKNDYWAMLAYNRSKLCNILFSNELHRRLSPRGVTSNAVHPGNMMYSNIHRSWWVYTLLFTLARPFTKSMQQGAATTVYCAAVPELEGLGGMYFNNCCRCMPSPEAQSEETARTLWALSERLIQERLGSQSG
modifications: phosphotyrosine at 33
For the molecule B1, in the experiment with Recombinant GST-Zfra, the binding result is “binds”.

B2: Endogenous WOX1 (SK-N-SH cells) (protein, UniProt Q9NZC7 1-414)
chain: B1 chain
Turning to B2, the binding entry (in experiment [1]; with Recombinant GST-Zfra) was “binds” each time.
